Data: PubChem BioAssay AID493014 (National Center for Advancing Translational Sciences (NCATS), 2011)
This is one part of the list. Further columns of the screen follow, without active or inactive calls. Most of these compounds were active or inconclusive in the main read-out, so they are no random draw. Words in brackets tell the shape of the fitted curve; partial curves, single points and poor fits give uncertain potencies.

Experiment: qHTS Assay to Find Inhibitors of Chronic Active B-Cell Receptor Signaling
Conditions: ABC-DLBCL IkBa-CBG/CBR reporter, luminescence ratio (green luciferase fused to IkBa over red control in TMD8 lymphoma cells), 4 h; measured here: CBR red luminescence, cell number
Outline: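 Compounds up to 46 uM were incubated four hours with TMD8 cells whose green CBG68 luciferase is fused to IkappaBalpha; red CBR luminescence normalised the signal, and concentration-effect curves were fitted to fusion, red and ratio data.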

Structure (SMILES) | AC50
OCCN1CCN(C2Cc3cc(Cl)ccc3Sc3ccc(Cl)cc32)CC1 (stereo unspecified) (tested in a mixture with another compound) | 29.1 µM [falling, single point]
Cc1sc2nc3c(SC(C)C(=O)O)cc(C(=O)c4ccccc4O)cn3c(=O)c2c1C (stereo unspecified) | 16.4 µM [falling, partial curve]
N#CCSc1nc(-c2ccccc2)cs1 | 4.61 µM [rising, partial curve, poor fit]
O=C(COC(=O)c1ccccc1NCc1ccco1)Nc1ccc2c(c1)OCO2 | 10 µM [rising, partial curve]
COc1ccc(/C=C/C(=O)OCC(=O)NC(C)CCc2ccccc2)cc1OC (stereo unspecified) | 18.4 µM [rising, partial curve, poor fit]
COC(=O)c1ccc(OC(C)C(=O)c2ccc(C)cc2)cc1 (stereo unspecified) | 8.2 µM [rising, partial curve, poor fit]
O=C(c1cc2c(s1)CCCC2)N1CCN(C(=O)C2CCCO2)CC1 (stereo unspecified) | 8.2 µM [rising, partial curve, poor fit]
COc1cccc(-c2cc(C(=O)Nc3cc(C)n(Cc4ccc(Cl)cc4)n3)no2)c1 | 4.11 µM [falling, full curve, poor fit]
Nc1ncnc2c1ncn2[C@H]1CC[C@@H](CO)O1 | 25.9 µM [rising, single point]
Cn1cc(Br)c(C(=O)N/N=C/c2cc3c(cc2Cl)OCO3)n1 | 2.24 µM [falling, full curve]
CCOc1ccc(CN2C(=O)c3ccccc3C2=O)cc1C(=O)Nc1nnc(SCC)s1 | 6.51 µM [rising, single point]
C=CCOC(=O)c1sc(NC(=O)c2ccco2)nc1C | 2 µM [falling, partial curve, poor fit]
COc1cccc(-c2csc(N3CCN(CC(=O)NNC(=O)c4ccc(Cl)cc4)CC3)n2)c1 | 11.2 µM [falling, single point]
COc1ccc(-c2noc(Cc3ccccc3OC)n2)cc1 | 22.4 µM [falling, partial curve, poor fit]
CC(C)(C)N1C(=O)c2ccc(C(=O)Nc3ccc(O)cc3)cc2C1=O | 12.6 µM [falling, partial curve]
c1cnc(N2CCN(c3ccc4ccccc4n3)CC2)nc1 | 12.6 µM [falling, partial curve, poor fit]
O=C(Nc1cccc(Cl)c1)c1ccc(=O)[nH]n1 | 11.2 µM [falling, partial curve, poor fit]
COc1ccccc1NS(=O)(=O)c1cccc(-n2c(O)c(C=Nc3ccccc3C(=O)O)c3ccccc3c2=O)c1 | 12.6 µM [falling, partial curve]
O=C(NCCc1ccccn1)c1cccc(S(=O)(=O)N2CCc3ccccc32)c1 | 12.6 µM [falling, partial curve, poor fit]
COC(=O)c1ccccc1NC(=O)CSc1nc(C)c(Cl)c(C)c1C#N | 3.16 µM [falling, single point]
S=C(N/N=C/c1ccc2ncccc2c1)Nc1cccnc1 | 14.1 µM [falling, partial curve, poor fit]

Structure (SMILES) | AC50
NS(=O)(=O)c1ccc(CCNC(=O)CNCCc2ccccc2)cc1 | 5.62 µM [rising, single point]
COC(=O)C(=Cc1ccccc1[N+](=O)[O-])C(=O)OC | 1.41 µM [falling, full curve]
Cc1c(Cl)cccc1N/C(SCC(=O)N1CCCCCC1)=C(/C#N)c1nc2ccccc2s1 | 5.8 µM [falling, full curve]
NS(=O)(=O)c1ccc(CNC(=O)/C=C/c2ccc(Cl)c(Cl)c2)cc1 | 20.6 µM [falling, single point]
Clc1cccc(-c2cc3nc4c(c(N5CCNCC5)n3n2)CCCC4)c1 | 29.1 µM [falling, single point]
CC(=O)Nc1cc2nn(-c3ccccc3)nc2cc1C | 12.6 µM [rising, single point]
COc1ccc(OCCNc2cc(N3CCOCC3)ccc2[N+](=O)[O-])cc1 | 14.1 µM [rising, partial curve]
Cc1c(NC(=O)c2cc3c(s2)CCCC3)c(=O)n(-c2ccccc2)n1C | 35.5 µM [rising, partial curve, poor fit]
CC1CCN(C(=O)Cn2cc(SCC(=O)NCC3CCCO3)c3ccccc32)CC1 (stereo unspecified) | 10 µM [falling, partial curve, poor fit]
CC1CCN(C(=O)COC(=O)c2cccs2)CC1 | 14.6 µM [falling, single point]
COc1cc(N2CCCC2)c(OC)cc1/C=C(/C#N)c1ccc(F)cc1 | 1.16 µM [rising, full curve, poor fit]
Cc1ccc(OCc2nc(-c3ccccn3)no2)cc1 | 10.3 µM [falling, partial curve]
O=C(c1ccncc1)N1CCN(C(=O)c2cccc3ccccc23)CC1 | 35.5 µM [falling, partial curve, poor fit]
Oc1ccc(Cl)cc1CNc1ccccn1 | 2.51 µM [rising, partial curve, poor fit]
O=C(Nc1ccc(Cl)c(S(=O)(=O)N2CCCCC2)c1)c1ccncc1 | 29.1 µM [falling, partial curve, poor fit]
Cc1nn(C)cc1C(=O)Nc1ccc2c(c1)OCCO2 | 17.8 µM [falling, partial curve, poor fit]
CNC(=O)c1ccc2c(c1)N(Cc1ccccc1Cl)C(=O)c1ccccc1S2 | 35.5 µM [falling, single point]
CCOC(=O)c1cccc(NC(=O)COc2ccc([N+](=O)[O-])cc2)c1 | 10 µM [falling, partial curve, poor fit]
Cc1ccsc1C(=O)Nc1nc2ccccc2[nH]1 | 1.41 µM [falling, full curve]
Cc1ccc(Nc2ccc(C(=O)O)cc2N)cc1 | 11.2 µM [falling, partial curve, poor fit]

3 compounds already listed, ordered by molar mass, low to high:
Structure (SMILES) | AC50
CC1CCN(C(=O)COC(=O)c2cccs2)CC1 | 14.6 µM [falling, single point]
Cc1c(NC(=O)c2cc3c(s2)CCCC3)c(=O)n(-c2ccccc2)n1C | 35.5 µM [rising, partial curve, poor fit]
NS(=O)(=O)c1ccc(CNC(=O)/C=C/c2ccc(Cl)c(Cl)c2)cc1 | 20.6 µM [falling, single point]
